Reference: PubChem BioAssay AID588342 (National Center for Advancing Translational Sciences (NCATS), 2011)
Only a part is listed here, and it is no random draw. Results filed as inconclusive are left out. The source made the active and inactive calls. Calls come from the whole dose curve; as a rule, active = well fitted inhibition curve with a large enough effect; inconclusive = small, poorly fitted or top-dose-only effect; inactive = flat fitted curve, though single readings scatter.

Sequences of proteins named here, by UniProt entry; tags and fusion partners are left off.
UniProt P08659, whole entry, looked up: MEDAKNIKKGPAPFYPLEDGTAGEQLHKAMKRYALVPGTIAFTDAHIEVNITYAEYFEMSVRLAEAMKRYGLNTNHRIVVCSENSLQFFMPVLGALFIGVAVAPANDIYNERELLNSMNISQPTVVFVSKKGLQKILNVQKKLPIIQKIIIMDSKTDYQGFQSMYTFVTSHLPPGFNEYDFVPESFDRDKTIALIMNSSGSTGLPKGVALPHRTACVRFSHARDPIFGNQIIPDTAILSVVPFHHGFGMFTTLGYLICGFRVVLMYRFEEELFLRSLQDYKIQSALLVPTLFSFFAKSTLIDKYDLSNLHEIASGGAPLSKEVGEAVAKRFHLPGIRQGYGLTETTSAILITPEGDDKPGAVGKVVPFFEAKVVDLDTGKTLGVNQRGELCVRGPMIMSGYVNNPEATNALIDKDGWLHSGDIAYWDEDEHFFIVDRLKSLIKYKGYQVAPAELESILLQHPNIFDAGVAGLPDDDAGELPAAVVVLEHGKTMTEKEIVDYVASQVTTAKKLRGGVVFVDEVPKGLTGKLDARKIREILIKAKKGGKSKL

Target: Luciferin 4-monooxygenase (Photinus pyralis) (UniProt P08659)
Test: qHTS profiling assay for firefly luciferase inhibitor/activator using purifed enzyme and Km concentrations of substrates (counterscreen for miR-21 project); note: nearly all actives have a fitted effect of over 55% in size
Conditions: purified FLuc, luminescence inhibition
Description: MLPCN Grant: 1 R21 NS059478-01 (miR-21 grant) Assay Provider: NCGC NCGC Assay Overview: Firefly (Photinus pyralis) luciferase is one of the most commonly used transcriptional reporters for a number of reasons. It is considered one of the more dynamically responsive reporters -that is, responsive to changes in reporter transcription - as it requires no post-translational modifications and is enzymatically active directly after protein synthesis (Wood, 1998). Additionally, the half-life of the luciferase protein is short relative to other reporter-gene products (Wood, 1995). […] Although light produced in a bioluminescence reaction is of lower intensity than that produced during fluorescence emission, this is offset by little to no background light inherent to luminescent assays. […] Accumulated intracellular FLuc protein can be measured as an increase in luminescence signal, upon addition of detection reagents (which contain high concentrations of FLuc substrates) commonly used in high-throughput screening. In cell-based reporter gene assays that use FLuc as the reporter gene to quantitate the potential influence of a given compound against the target biology, this apparent increase in luminescence can mistakenly be interpreted as identification of a compound that is active against the target of interest. […]

Row | SMILES | Potency
1 | Cc1ccc(-c2onc3ccc(C(=O)O)cc23)cc1 | active: 2390 nM
